# Results are given in words; binding and its absence hold for the method and conditions named. In cells and extracts the contact can be indirect. Binding calls can cover weak binding; strength is not graded here. For some assays here: Where a sequence is shown, tags or fusion partners need not be part of it.
# T1: nYFP-VAP27-1 (Arabidopsis) (UniProt Q8VZ95)
# T1 sequence: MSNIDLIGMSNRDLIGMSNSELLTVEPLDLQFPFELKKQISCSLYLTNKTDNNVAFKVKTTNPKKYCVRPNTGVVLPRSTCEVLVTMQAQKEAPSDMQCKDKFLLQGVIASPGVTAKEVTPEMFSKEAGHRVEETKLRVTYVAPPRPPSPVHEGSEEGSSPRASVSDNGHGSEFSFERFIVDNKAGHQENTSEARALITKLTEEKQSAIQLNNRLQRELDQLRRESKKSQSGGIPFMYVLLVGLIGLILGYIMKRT
# B1: VAP27-1-RFP (transgenic Arabidopsis) (protein, UniProt Q8VZ95 1-256)
# chain: MSNIDLIGMSNRDLIGMSNSELLTVEPLDLQFPFELKKQISCSLYLTNKTDNNVAFKVKTTNPKKYCVRPNTGVVLPRSTCEVLVTMQAQKEAPSDMQCKDKFLLQGVIASPGVTAKEVTPEMFSKEAGHRVEETKLRVTYVAPPRPPSPVHEGSEEGSSPRASVSDNGHGSEFSFERFIVDNKAGHQENTSEARALITKLTEEKQSAIQLNNRLQRELDQLRRESKKSQSGGIPFMYVLLVGLIGLILGYIMKRT
# Legend:
# [1] = molecular target: T1, nYFP-VAP27-1 (Arabidopsis); test: split reporter
# [2] = molecular target: GFP-TraB1a (transgenic Arabidopsis) (Arabidopsis); test: co-IP
Molecule,binding [1],binding [2]
cYFP-TraB1 (Arabidopsis),binds,
B1,,binds

# Source: publication doi:10.1101/2022.02.25.481886
